The list shows only some results of the screen, not a fair sample: it is rich in T/C values a quarter to a half above the control, in often repeated tests (any T/C) and in doses without a T/C. Further doses and runs are listed elsewhere. T/C is the treated group as % of the vehicle group. Some doses have a count of surviving animals in place of a T/C: the source holds a T/C of zero for them, seemingly a mark for toxic or unscored doses. Some doses without a T/C left all or most animals alive at the check, yet need not have been tolerated: the source hardly ever lists a survival T/C far under the control, and the zero likely stands for such cases as well. Counts of survivors are from the toxicity check (mostly the fifth day) where no day follows; animals may have died later. Schedules are NCI's codes, read here as Q, the interval in days (D) or hours (H), X, the number of doses. Some doses were run more than once; their values stand side by side, smallest first. For survival time, this PubChem deposit counts one and a half times the control or more as active, and values a quarter to a half above the control carry no call in these data; other NCI protocols may use other cut-offs. Signs of the kind (2×) give the number of equal values in this list. Some T/C values are followed by the survivors on the day toxicity was checked, most often the fifth; where none is given, no animal had died by that day.
System: P388 leukemia ip, CD2F1 mice, survival T/C
Assay: NCI In Vivo Anticancer Drug Screen. Data for tumor model P388 Leukemia (intraperitoneal) in CD2F1 (CDF1) mice
Settings: T/C endpoint: median survival time, higher T/C = longer survival
[1] = dose: 200.0 mg/kg/injection, schedule: Q01DX005 (ip), vehicle: saline with Tween-80
[2] = dose: 240.0 mg/kg/injection, schedule: Q01DX005 (ip), vehicle: saline with Tween-80
[3] = dose: 60.0 mg/kg/injection, schedule: Q01DX005 (ip), vehicle: Klucel (hydroxypropylcellulose) (HPC)
[4] = dose: 6.25 mg/kg/injection, schedule: Q01DX009 (ip), vehicle: suspension in saline
[5] = dose: 25.0 mg/kg/injection, schedule: Q01DX009 (ip), vehicle: saline

CC(Oc1ccccc1)C(=O)N=c1scc(-c2ccc(Br)cc2)n1-c1cccc2ccccc12 (stereo not drawn)
survivor count (dose: 50.0 mg/kg/injection, schedule: Q01DX009 (ip), vehicle: gum acacia): 3 of 3

O=c1[nH]cc([N+](=O)[O-])cc1Cl
survivor count [1]: 2 of 6

CCOC(=O)C(Cc1ccc(N(CCCl)CCCl)cc1)NC=O (stereo not drawn)
T/C (dose: 3.13 mg/kg/injection, schedule: Q04DX003 (ip), vehicle: saline with Tween-80): 127 % of control | T/C (dose: 25.0 mg/kg/injection, schedule: Q04DX003 (ip), vehicle: saline with Tween-80): 145 % of control | survivor count (dose: 400.0 mg/kg/injection, schedule: Q04DX003 (ip), vehicle: saline with Tween-80): 2 of 6

O=C(O)C1=C(C=C(c2ccccc2)c2ccccc2)OCCC1
survivor count (dose: 50.0 mg/kg/injection, schedule: Q01DX009 (ip), vehicle: saline with Tween-80): 6 of 6 | survivor count (dose: 100.0 mg/kg/injection, schedule: Q01DX009 (ip), vehicle: saline with Tween-80): 6 of 6

CNC(=O)N(N=O)c1[nH]c(=O)ncc1Cl
survivor count [2]: 3 of 6

CCC1C2Cc3ccc(O)cc3C1(C)CCN2C (stereo not drawn)
survivor count (dose: 100.0 mg/kg/injection, schedule: Q01DX005 (ip), vehicle: Klucel (hydroxypropylcellulose) (HPC)): 3 of 6 | survivor count (dose: 200.0 mg/kg/injection, schedule: Q01DX005 (ip), vehicle: Klucel (hydroxypropylcellulose) (HPC)): 1 of 6

NC(=O)C1=CC2C3C=CC2(O)C(=O)OC3O1 (stereo not drawn)
T/C (dose: 15.0 mg/kg/injection, schedule: Q01DX005 (ip), vehicle: Klucel (hydroxypropylcellulose) (HPC)): 126 % of control (2×) | T/C (dose: 30.0 mg/kg/injection, schedule: Q01DX005 (ip), vehicle: Klucel (hydroxypropylcellulose) (HPC)): 145 % of control [5 of 6 alive] | survivor count [3]: 0 of 6

O=C(NCCCCN1CC1)C(=O)NCCCCN1CC1
T/C (dose: 1.56 mg/kg/injection, schedule: Q04DX003 (ip), vehicle: Klucel (hydroxypropylcellulose) (HPC)): 134 % of control

Cc1nc(C#N)c(=N)n(CCCO)c1-c1ccccc1
survivor count [2]: 0 of 6

CC(C)CNCC(=O)Nc1ccc(Cc2ccc(NC(=O)CNCC(C)C)cc2)cc1
survivor count [1]: 3 of 6

CC1(C)N=C(N)N=C(N)N1c1ccc(Cl)c(C(F)(F)F)c1
T/C (dose: 3.12 mg/kg/injection, schedule: Q01DX009 (ip), vehicle: suspension in saline): 134 % of control | T/C (dose: 6.25 mg/kg/injection, schedule: Q01DX009 (ip), vehicle: saline): 133 % of control | T/C [4]: 146 % of control | T/C [5]: 126 % of control

CCN(CC)CCCC(C)Nc1nccc2c(Cl)cccc12 (stereo not drawn)
survivor count (dose: 200.0 mg/kg/injection, schedule: Q01DX005 (ip), vehicle: saline): 0 of 5

CC[NH-].CC[NH-].[Cl][Pt+2][Cl]
T/C [4]: 134 % of control | survivor count [5]: 6 of 6 | survivor count (dose: 25.0 mg/kg/injection, schedule: Q01DX009 (ip), vehicle: suspension in saline): 6 of 6

CN(C)/C=N\c1ncnc2c1c(C#N)cn2C1OC(CO)C(O)C1O (stereo not drawn)
T/C (dose: 30.0 mg/kg/injection, schedule: Q01DX005 (ip), vehicle: Klucel (hydroxypropylcellulose) (HPC), evaluated on day 22): 137 % of control | T/C (dose: 30.0 mg/kg/injection, schedule: Q01DX005 (ip), vehicle: Klucel (hydroxypropylcellulose) (HPC), evaluated on day 30): 130 % of control | survivor count [3]: 0 of 6 and 5 of 6 | survivor count (dose: 120.0 mg/kg/injection, schedule: Q01DX005 (ip), vehicle: Klucel (hydroxypropylcellulose) (HPC)): 0 of 6 | survivor count (dose: 240.0 mg/kg/injection, schedule: Q01DX005 (ip), vehicle: Klucel (hydroxypropylcellulose) (HPC)): 0 of 6

CCCCCC[N+]1(CC)CCCC1
survivor count (dose: 0.78 mg/kg/injection, schedule: Q01DX009 (ip), vehicle: saline): 5 of 6 | survivor count (dose: 1.56 mg/kg/injection, schedule: Q01DX009 (ip), vehicle: saline): 6 of 6 | survivor count (dose: 6.12 mg/kg/injection, schedule: Q01DX009 (ip), vehicle: saline): 6 of 6 | survivor count (dose: 12.5 mg/kg/injection, schedule: Q01DX009 (ip), vehicle: saline): 6 of 6 | survivor count [5]: 5 of 6 | survivor count (dose: 50.0 mg/kg/injection, schedule: Q01DX009 (ip), vehicle: saline): 3 of 6 | survivor count (dose: 100.0 mg/kg/injection, schedule: Q01DX009 (ip), vehicle: saline): 0 of 6 | survivor count (dose: 200.0 mg/kg/injection, schedule: Q01DX009 (ip), vehicle: saline): 0 of 6

O=S=NSc1c(F)c(F)c(F)c(F)c1F
survivor count [1]: 0 of 6

Reference: PubChem BioAssay AID330 (DTP/NCI, 2004)
